Measurements reported in paper PMC11910659.
These are yes or no findings as the source states them, for the method shown. In cells and extracts the contact can be indirect. Here binding means that the protein was enriched with, or labelled near, the bait; the list need not be complete. For part of these data: No binding means not detected with the bait.

Columns and labels:
DRC1 (mouse) = biological target: T1, DRC1 (mouse) (UniProt Q3USS3); test: affinity purification with mass spectrometry; IP-MS for DRC2 and DRC1; no further conditions told
T1 sequence: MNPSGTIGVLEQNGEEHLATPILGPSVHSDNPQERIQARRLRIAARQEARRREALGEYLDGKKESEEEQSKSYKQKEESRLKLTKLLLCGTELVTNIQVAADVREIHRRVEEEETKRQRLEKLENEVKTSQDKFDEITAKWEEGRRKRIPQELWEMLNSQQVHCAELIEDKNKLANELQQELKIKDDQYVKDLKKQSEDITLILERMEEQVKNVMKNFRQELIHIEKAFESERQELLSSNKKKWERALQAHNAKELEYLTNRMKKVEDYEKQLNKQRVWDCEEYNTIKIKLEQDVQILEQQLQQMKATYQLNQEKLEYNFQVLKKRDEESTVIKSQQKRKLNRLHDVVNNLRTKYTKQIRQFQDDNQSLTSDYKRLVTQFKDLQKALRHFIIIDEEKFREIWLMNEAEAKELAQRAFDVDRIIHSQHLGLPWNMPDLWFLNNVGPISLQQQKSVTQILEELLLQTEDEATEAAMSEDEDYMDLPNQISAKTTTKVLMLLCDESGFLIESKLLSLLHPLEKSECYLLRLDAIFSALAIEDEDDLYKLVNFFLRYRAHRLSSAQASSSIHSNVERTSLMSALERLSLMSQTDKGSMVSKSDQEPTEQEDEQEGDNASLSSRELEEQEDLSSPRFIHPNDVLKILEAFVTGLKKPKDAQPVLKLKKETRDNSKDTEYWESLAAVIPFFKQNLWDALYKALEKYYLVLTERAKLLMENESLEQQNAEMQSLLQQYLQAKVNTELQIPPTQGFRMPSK

DRC2 (mouse) = biological target: T2, DRC2 (mouse) (UniProt Q8VHI7); test: as above
T2 sequence: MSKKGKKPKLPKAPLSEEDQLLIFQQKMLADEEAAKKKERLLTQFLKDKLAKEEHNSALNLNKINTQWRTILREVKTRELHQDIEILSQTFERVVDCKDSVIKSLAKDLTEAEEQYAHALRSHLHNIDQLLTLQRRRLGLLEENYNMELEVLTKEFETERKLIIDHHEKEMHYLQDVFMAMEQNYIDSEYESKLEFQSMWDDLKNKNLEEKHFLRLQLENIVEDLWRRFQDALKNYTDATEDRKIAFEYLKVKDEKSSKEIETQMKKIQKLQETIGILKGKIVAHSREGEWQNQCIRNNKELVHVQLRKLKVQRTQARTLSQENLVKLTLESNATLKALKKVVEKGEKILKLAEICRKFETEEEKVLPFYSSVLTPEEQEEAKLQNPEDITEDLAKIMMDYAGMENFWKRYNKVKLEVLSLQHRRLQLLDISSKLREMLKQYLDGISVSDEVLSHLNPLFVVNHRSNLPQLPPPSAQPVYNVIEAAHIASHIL

[1] = biological target: T3, DRC4 (Growth arrest-specific protein 8) (mouse (endogenous in testis)) (UniProt Q60779); test: affinity purification with mass spectrometry; DRC4 immunoprecipitated from mouse testis with anti-DRC4 antibody (Pierce crosslink IP kit); WT against Drc4-/- testes; LC-MS/MS
T3 sequence: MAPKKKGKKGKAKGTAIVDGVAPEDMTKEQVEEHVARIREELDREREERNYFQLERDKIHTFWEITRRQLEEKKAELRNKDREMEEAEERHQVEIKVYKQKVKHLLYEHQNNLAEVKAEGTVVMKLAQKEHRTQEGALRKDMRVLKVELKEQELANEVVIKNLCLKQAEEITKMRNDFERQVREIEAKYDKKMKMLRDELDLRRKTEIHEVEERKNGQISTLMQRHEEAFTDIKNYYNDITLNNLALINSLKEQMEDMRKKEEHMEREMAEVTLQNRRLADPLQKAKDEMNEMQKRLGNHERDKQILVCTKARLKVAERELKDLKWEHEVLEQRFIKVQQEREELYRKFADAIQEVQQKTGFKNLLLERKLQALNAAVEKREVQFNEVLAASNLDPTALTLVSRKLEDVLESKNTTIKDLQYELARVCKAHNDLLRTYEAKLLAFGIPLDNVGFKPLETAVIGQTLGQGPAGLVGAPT

- binding (DRC1 (mouse)): no binding
- binding (DRC2 (mouse)): no binding
- binding [1]: binds
B1: A-kinase anchor protein 3 (AKAP3) (protein, UniProt O88987 1-864)
chain: MADRVDWLQSQSGVCKVGVYSPGDNQHQDWKMDTSTDPVRVLSWLRKDLEKSTAGFQDSRFKPGESSFVEEVAYPVDQRKGFCVDYYNTTNKGSPGRLHFEMSHKENPSQGLISHVGNGGSIDEVSFYANRLTNLVIAMARKEINEKIHGAENKCVHQSLYMGDEPTPHKSLSTVASELVNETVTACSKNISSDKAPGSGDRASGSSQAPGLRYTSTLKIKESTKEGKCPDDKPGTKKSFFYKEVFESRNAGDAKEGGRSLPGDQKLFRTSPDNRPDDFSNSISQGIMTYANSVVSDMMVSIMKTLKIQVKDTTIATILLKKVLMKHAKEVVSDLIDSFMKNLHGVTGSLMTDTDFVSAVKRSFFSHGSQKATDIMDAMLGKLYNVMFAKKFPENIRRARDKSESYSLISTKSRAGDPKLSNLNFAMKSESKLKENLFSTCKLEKEKTCAETLGEHIIKEGLHMWHKSQQKSPGLERAAKLGNAPQEVSFECPDPCEANPPHQPQPPENFANFMCDSDSWAKDLIVSALLLIQYHLAQGGKMDAQSFLEAAASTNFPTNKPPPPSPVVQDECKLKSPPHKICDQEQTEKKDLMSVIFNFIRNLLSETIFKSSRNCESNVHEQNTQEEEIHPCERPKTPCERPITPPAPKFCEDEEATGGALSGLTKMVANQLDNCMNGQMVEHLMDSVMKLCLIIAKSCDSPLSELGEEKCGDASRPNSAFPDNLYECLPVKGTGTAEALLQNAYLTIHNELRGLSGQPPEGCEIPKVIVSNHNLADTVQNKQLQAVLQWVAASELNVPILYFAGDDEGIQEKLLQLSATAVEKGRSVGEVLQSVLRYEKERQLDEAVGNVTRLQLLDWLMANL
